Measured values from patent US20230330254A1, “ANTI-GLP1R ANTIBODY-TETHERED DRUG CONJUGATES COMPRISING GLP1 PEPTIDOMIMETICS AND USES THEREOF” (Regeneron Pharmaceuticals, Inc., priority 2022, published 2023).
Results are given in words; binding and its absence hold for the method and conditions named. Some entries that bind do so weakly or less than the wild type.

Amino acid sequences for entries named in this document (tags omitted). A change or cut given only in a name is not applied to a line headed by its entry. Chains listed by the source or under a name are the forms on record and can include a tag or linker. Residues count along the entry.
UniProt P43220, residues 24-463: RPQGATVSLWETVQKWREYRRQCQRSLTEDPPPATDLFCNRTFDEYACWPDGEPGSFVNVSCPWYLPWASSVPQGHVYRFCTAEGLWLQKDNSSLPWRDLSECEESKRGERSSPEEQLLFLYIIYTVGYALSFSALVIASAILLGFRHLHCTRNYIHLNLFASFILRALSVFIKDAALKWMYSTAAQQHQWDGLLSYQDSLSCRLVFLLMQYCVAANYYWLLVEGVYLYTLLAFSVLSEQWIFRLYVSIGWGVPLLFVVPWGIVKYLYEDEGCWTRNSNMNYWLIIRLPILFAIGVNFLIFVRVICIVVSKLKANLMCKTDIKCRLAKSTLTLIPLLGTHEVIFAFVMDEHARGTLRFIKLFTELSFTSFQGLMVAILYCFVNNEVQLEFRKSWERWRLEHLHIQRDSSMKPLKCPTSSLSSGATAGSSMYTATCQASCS
full-length cynomolgus GLP1R on HEK293/CRE-Luc/mfGLP1R cells (F8V479, form named): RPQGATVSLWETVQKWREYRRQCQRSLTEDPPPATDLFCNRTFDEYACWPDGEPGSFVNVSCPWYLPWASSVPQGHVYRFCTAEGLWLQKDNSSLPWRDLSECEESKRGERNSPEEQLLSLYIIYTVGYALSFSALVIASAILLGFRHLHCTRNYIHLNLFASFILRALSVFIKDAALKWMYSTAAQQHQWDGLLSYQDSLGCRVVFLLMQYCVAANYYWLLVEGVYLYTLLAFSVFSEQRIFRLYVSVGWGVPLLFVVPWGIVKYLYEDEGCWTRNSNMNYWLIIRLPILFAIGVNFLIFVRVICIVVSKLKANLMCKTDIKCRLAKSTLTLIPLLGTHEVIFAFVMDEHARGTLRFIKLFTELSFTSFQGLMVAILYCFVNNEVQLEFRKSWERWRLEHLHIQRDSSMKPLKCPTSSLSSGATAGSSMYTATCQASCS

Key:
[1] = target: N-terminal ectodomain of human GLP1R expressed with a myc-myc hexahistidine tag (human) (UniProt P43220); assay: SPR
[2] = target: full-length human GLP1R on HEK293/CRE-Luc/hGLP1R cells (human) (UniProt P43220); assay: flow cytometry
[3] = target: full-length cynomolgus GLP1R on HEK293/CRE-Luc/mfGLP1R cells (cynomolgus) (UniProt F8V479); assay: flow cytometry

Binder	binding [1]	binding [2]	binding [3]
H2aM30341N (antibody, V domains shown) VH: QVQLQQWGAGLLKPSETLSLTCAVYGGSFSGYYWSWIRQPPGKGLEWIGEINHAGSTNYNPSLKSRITISVDTSKNQFSLKLSSVTAADTAVYYCARGWYYGSGSYHRNWFDPWGQGTLVTVSS VL: EIVLTQSPGTLSLSPGERATLSCRASQSVYYSYLAWYQQKPGQAPRLLIYGASNRATGIPDRFSGSGSGTDFTLTISRLEPEDFAVYYCQQYGNSPWTFGQGTKVEIK	binds	binds	binds
REGN8051 (antibody, V domains shown) VH: QVQLVESGGGVGQPGRSLRLSCAASGFTFSRNAMHWVRQAPGKGLEWVAVISYDGSNKHYADSVKGRFTISRDNSKNTLYLEMNSLRVEDTAVYYCAKGGIPFDYWGQGTLVTVSS VL: DIVMTQSPLSSPVTLGQPASISCRSSQSLVHFDGNTYLSWLHQRPGQPPRLLIYKISNRFSGVPDRFSGSGAGTDFTLKISRVEPEDVGVYYCMHATQFPYTFGQGTKLEIK	binds	–	binds
REGN8070 (antibody, human IgG4 S228P, kappa, V domains shown) VH: QVQLVESGGGVGQPGRSLRLSCAASGFTFSRNAMHWVRQAPGKGLEWVAVISYDGSNKHYADSVKGRFTISRDNSKNTLYLEMNSLRVEDTAVYYCAKGGIPFDYWGQGTLVTVSS VL: DIVMTQSPLSSPVTLGQPASISCRSSQSLVHFDGNTYLSWLHQRPGQPPRLLIYKISNRFSGVPDRFSGSGAGTDFTLKISRVEPEDVGVYYCMHATQFPYTFGQGTKLEIKR	–	–	binds
REGN8070-M3190 (antibody, human IgG4 S228P, kappa, V domains shown, linker-payload M3190 (LP11) on Gln 3 of the N-terminal Q-tag LLQGSG) VH: QVQLVESGGGVGQPGRSLRLSCAASGFTFSRNAMHWVRQAPGKGLEWVAVISYDGSNKHYADSVKGRFTISRDNSKNTLYLEMNSLRVEDTAVYYCAKGGIPFDYWGQGTLVTVSS VL: DIVMTQSPLSSPVTLGQPASISCRSSQSLVHFDGNTYLSWLHQRPGQPPRLLIYKISNRFSGVPDRFSGSGAGTDFTLKISRVEPEDVGVYYCMHATQFPYTFGQGTKLEIKR	binds	–	binds

Other lines, results leading:

binding [1]	binding [2]	binding [3]	Binder
binds	–	–	REGN9278-M3190 (antibody, human IgG4 S228P, kappa, V domains shown, linker-payload M3190 (LP11) on Gln 3 of the N-terminal Q-tag LLQGSG) VH: QVQLQQWGAGLLKPSETLSLTCAVYGGSFSGYYWSWIRQPPGKGLEWIGEINHAGSTNYNPSLKSRITISVDTSKNQFSLKLSSVTAADTAVYYCARGWYYGSGSYHRNWFDPWGQGTLVTVSS VL: EIVLTQSPGTLSLSPGERATLSCRASQSVYYSYLAWYQQKPGQAPRLLIYGASNRATGIPDRFSGSGSGTDFTLTISRLEPEDFAVYYCQQYGNSPWTFGQGTKVEIKR
–	–	binds	REGN9278 (antibody, human IgG4 S228P, kappa, V domains shown) VH: QVQLQQWGAGLLKPSETLSLTCAVYGGSFSGYYWSWIRQPPGKGLEWIGEINHAGSTNYNPSLKSRITISVDTSKNQFSLKLSSVTAADTAVYYCARGWYYGSGSYHRNWFDPWGQGTLVTVSS VL: EIVLTQSPGTLSLSPGERATLSCRASQSVYYSYLAWYQQKPGQAPRLLIYGASNRATGIPDRFSGSGSGTDFTLTISRLEPEDFAVYYCQQYGNSPWTFGQGTKVEIKR
